# No constants are given. Whether binding was seen depends on the method and setting.
# What was measured:
# [1] = target: Drosophila imaginal morphogenesis protein-late 2 protein (Imp-L2) (Drosophila melanogaster) (UniProt Q09024); test: SEC-MALS; ligand-free Imp-L2, 1 mg/mL, 50 mM Tris pH 7.4, 300 mM NaCl; Superdex S200 10/300; both purified
# [2] = target: Drosophila imaginal morphogenesis protein-late 2 protein (Imp-L2) (Drosophila melanogaster) (UniProt Q09024); test: SEC-MALS; Imp-L2 with DILP5 added; 150 mM NaCl, 50 mM Tris pH 7.4; Superdex S200 10/300, room temperature; both purified
# [3] = target: Drosophila imaginal morphogenesis protein-late 2 protein (Imp-L2) (Drosophila melanogaster) (UniProt Q09024); test: SEC-MALS; Imp-L2 with IGF-1 added; 150 mM NaCl, 50 mM Tris pH 7.4; Superdex S200 10/300, room temperature; both purified
# [4] = target: Drosophila imaginal morphogenesis protein-late 2 protein (Imp-L2) (Drosophila melanogaster) (UniProt Q09024); test: SEC-MALS; Imp-L2 with insulin X14 added; 150 mM NaCl, 50 mM Tris pH 7.4; Superdex S200 10/300, room temperature; both purified
binder,measurement,setting,value
"Drosophila imaginal morphogenesis protein-late 2 protein (Imp-L2) (natural protein, Drosophila melanogaster, UniProt Q09024 26-267, looked up, signal peptide in the construct: full-length Drosophila Imp-L2 with the native signal peptide, secreted into the medium; After 3C cleavage, residues of the protease site should remain at the C-terminus (surmised); A selenomethionine-labelled form was also made; the apo structure was solved by MAD; also called Dm Imp-L2; apo-Imp-L2; source: baculovirus-infected Sf9 cells, purified from conditioned …) RAVDLVDDSNDVDNSIEAEEEKPRNRAFEADWLKFTKTPPTKLQQADGATIEIVCEMMGSQVPSIQWVVGHLPRSELDDLDSNQVAEEAPSAIVRVRSSHIIDHVLSEARTYTCVGRTGSKTIYASTVVHPPRSSRLTPEKTYPGAQKPRIIYTEKTHLDLMGSNIQLPCRVHARPRAEITWLNNENKEIVQGHRHRVLANGDLLISEIKWEDMGNYKCIARNVVGKDTADTFVYPVLNEED",binding,[1],no binding (condition: at 300 mM NaCl)
same,binding,[2],no binding (condition: with DILP5 added)
same,binding,[3],no binding (condition: with IGF-1 added)
same,binding,[4],no binding (condition: with insulin X14 added)
